## Results of single-concentration screens

The chains behind the UniProt entries cited, without tags or fusion partners. Residues count along the entry.
UniProt Q8IDJ8, 1-583: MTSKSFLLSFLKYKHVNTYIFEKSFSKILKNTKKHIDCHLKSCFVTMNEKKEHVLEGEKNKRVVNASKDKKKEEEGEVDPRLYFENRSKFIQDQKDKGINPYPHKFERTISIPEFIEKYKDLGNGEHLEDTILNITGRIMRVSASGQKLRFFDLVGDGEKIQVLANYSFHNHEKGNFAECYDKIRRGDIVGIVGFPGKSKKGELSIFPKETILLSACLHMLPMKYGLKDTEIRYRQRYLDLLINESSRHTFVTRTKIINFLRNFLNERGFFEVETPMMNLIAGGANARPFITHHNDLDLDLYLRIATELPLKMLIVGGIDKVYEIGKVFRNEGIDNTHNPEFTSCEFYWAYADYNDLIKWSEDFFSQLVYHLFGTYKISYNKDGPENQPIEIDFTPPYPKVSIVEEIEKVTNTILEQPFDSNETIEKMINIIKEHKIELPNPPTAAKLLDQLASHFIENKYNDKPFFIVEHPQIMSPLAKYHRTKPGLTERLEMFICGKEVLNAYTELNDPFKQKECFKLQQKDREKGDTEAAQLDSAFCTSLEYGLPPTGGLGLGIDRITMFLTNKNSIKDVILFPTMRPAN
UniProt I6X8D2, whole entry: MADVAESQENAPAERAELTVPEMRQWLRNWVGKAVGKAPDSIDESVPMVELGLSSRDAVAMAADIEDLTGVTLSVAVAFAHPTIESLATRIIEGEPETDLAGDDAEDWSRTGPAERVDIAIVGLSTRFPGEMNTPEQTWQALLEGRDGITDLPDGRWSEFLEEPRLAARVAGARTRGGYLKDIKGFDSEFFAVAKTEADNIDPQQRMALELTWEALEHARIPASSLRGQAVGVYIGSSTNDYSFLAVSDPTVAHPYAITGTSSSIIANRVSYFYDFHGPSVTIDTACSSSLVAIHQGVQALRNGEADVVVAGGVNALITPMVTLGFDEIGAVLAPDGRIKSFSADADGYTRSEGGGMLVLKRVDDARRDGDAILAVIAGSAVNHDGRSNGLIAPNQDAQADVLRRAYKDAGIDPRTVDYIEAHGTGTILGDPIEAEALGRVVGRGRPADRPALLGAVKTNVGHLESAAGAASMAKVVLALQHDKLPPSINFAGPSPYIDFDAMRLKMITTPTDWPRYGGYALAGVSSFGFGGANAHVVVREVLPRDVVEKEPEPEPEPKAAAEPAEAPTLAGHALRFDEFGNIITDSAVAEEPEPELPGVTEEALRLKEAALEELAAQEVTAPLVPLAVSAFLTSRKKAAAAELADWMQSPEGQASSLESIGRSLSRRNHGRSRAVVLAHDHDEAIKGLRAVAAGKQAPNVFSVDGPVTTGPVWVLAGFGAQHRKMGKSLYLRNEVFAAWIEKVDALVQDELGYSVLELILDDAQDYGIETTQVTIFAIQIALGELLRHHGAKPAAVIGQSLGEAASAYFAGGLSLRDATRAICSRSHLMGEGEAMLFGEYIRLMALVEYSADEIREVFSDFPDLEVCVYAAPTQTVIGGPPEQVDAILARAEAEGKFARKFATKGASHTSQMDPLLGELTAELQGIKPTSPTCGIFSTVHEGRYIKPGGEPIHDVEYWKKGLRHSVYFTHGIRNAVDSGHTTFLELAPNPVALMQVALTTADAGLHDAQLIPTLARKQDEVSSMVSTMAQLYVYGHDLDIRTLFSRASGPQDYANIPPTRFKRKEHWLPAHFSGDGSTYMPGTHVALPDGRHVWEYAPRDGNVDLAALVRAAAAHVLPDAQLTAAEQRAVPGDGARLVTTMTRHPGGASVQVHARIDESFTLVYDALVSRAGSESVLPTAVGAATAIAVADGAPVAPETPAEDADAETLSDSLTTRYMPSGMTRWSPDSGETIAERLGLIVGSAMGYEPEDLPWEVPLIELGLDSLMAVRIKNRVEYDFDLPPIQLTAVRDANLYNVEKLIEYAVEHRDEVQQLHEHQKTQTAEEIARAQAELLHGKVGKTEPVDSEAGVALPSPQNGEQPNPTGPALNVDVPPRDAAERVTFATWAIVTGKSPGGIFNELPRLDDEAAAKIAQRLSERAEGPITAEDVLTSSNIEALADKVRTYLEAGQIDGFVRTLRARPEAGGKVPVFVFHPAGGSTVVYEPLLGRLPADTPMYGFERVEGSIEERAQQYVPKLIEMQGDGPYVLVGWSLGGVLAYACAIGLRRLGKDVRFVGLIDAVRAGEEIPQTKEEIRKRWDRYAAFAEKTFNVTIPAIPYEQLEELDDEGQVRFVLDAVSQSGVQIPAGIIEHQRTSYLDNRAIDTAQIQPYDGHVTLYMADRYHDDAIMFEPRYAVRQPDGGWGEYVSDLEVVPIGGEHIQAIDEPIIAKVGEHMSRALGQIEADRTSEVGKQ
UniProt P9WFT3, whole entry: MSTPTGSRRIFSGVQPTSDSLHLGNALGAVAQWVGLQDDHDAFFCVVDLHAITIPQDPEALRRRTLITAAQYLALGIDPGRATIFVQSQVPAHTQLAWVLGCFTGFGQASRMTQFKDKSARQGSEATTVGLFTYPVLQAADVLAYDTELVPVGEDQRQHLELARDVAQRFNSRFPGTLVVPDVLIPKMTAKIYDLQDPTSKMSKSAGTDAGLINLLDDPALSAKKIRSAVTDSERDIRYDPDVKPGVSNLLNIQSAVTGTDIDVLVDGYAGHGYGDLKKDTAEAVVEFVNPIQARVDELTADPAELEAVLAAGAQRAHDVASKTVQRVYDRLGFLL
UniProt Q4DA54, 1-478: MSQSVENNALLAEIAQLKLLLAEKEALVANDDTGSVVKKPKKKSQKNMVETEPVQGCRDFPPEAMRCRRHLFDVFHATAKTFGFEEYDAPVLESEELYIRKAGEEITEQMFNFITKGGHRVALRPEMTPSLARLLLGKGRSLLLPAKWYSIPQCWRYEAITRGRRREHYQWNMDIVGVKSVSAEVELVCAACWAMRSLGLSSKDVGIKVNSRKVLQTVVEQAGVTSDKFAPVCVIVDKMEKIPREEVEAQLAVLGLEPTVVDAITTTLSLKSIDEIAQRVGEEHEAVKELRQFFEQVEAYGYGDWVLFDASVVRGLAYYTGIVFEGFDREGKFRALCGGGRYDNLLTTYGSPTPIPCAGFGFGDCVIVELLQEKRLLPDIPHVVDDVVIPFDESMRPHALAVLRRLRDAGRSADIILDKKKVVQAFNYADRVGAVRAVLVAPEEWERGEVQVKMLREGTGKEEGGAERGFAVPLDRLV

Source: ChEMBL document CHEMBL3988442, “University of Dundee, Small-Polar-MMV Screening Library” (2021).

PfKRS1: 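Lysine-tRNA ligase, Plasmodium falciparum 3D7 (UniProt Q8IDJ8). Enzyme assay of the cytosolic lysyl-tRNA synthetase in 384-well plates, read by luminescence. Compounds at 30 µM. Direction is inferred from only a few compounds that gave an IC50; most scored high, so higher reads as stronger inhibition. Size under these conditions: about 69,000 compounds, about 49 of them at 50% or above in at least one test.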
Pks13 thioesterase: 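Enzyme assay of the thioesterase domain of polyketide synthase 13; the read-out is not stated. Target: Polyketide synthase Pks13, Mycobacterium tuberculosis (UniProt I6X8D2). Compounds at 30 µM. The record gives no direction; the compounds picked for IC50 retests had high values, so higher reads as stronger inhibition. About 67,000 compounds were tested under these conditions; 0.46% (about 300) showed 50% or more at least once.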
MtTrpRS: 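Enzyme assay of tryptophanyl-tRNA synthetase; the read-out is not stated. Target: Tryptophan-tRNA ligase, Mycobacterium tuberculosis (UniProt P9WFT3). Concentration: 10 µM. Higher most likely means stronger inhibition; the record gives no direction and few retests gave an IC50. Of about 65,000 compounds tested this way, about 64 (0.098%) reached 50% or more in at least one test.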
TcHisRS: 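Enzyme assay of histidyl-tRNA synthetase; the read-out is not stated. Target: Histidine-tRNA ligase, Trypanosoma cruzi CL Brener (UniProt Q4DA54). Concentration: 30 µM. The record gives no direction; compounds that gave an IC50 in retests scored well above the rest, so higher reads as stronger inhibition. About 69,000 compounds were tested under these conditions; 0.045% (about 31) showed 50% or more at least once.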

Values are the deposited “Percent Effect”, in %. How 0% and 100% were set is not recorded. Most values in the screen are low, and negative values occur. The compounds are a random part of those screened.

For CCN(C)C(=O)c1ccc(N2CCC(Oc3cccc(F)c3)CC2)nc1 the result was PfKRS1: -0.4131%; Pks13 thioesterase: -4.353%; MtTrpRS: -2.475%; TcHisRS: 0.578%. CC(C)n1cnnc1CN(C)CC1CCCNC1 (stereo unspecified) read PfKRS1: 4.647%; Pks13 thioesterase: -17.77%; MtTrpRS: 2.064%; TcHisRS: 6.579%. CCOC(=O)C1(CCOC)CCN(Cc2nccn2CC)CC1 gave PfKRS1: 1.256%; Pks13 thioesterase: -44.78%; MtTrpRS: -3.578%; TcHisRS: 0.5435%. Cc1cc(C(=O)N2CCCC3(CNC(=O)O3)C2)c2c(C)nn(C)c2n1 (stereo unspecified) read PfKRS1: 1.178%; Pks13 thioesterase: 22.82%; MtTrpRS: -1.92%; TcHisRS: 3.448%.

With COCC1CN(Cc2ccncc2)Cc2nn(CC3CC3)cc21 (stereo unspecified) the screen gave PfKRS1: -3.181%; Pks13 thioesterase: -21.38%; MtTrpRS: 0.08231%; TcHisRS: 4.926%. For CCNc1ccnc(NCC2CNCCO2)n1 (stereo unspecified) the result was PfKRS1: 2.295%; Pks13 thioesterase: -11.43%; MtTrpRS: -0.867%; TcHisRS: 8.021%. For O=C(O)CCn1ccc2c(nnc3c(-c4ccc(F)cc4)cnn32)c1=O the result was PfKRS1: -1.365%; Pks13 thioesterase: 3.275%; MtTrpRS: 1.377%; TcHisRS: -8.458%. COc1ccc(CNC2CCc3ncnn3C2)cc1OCC1CC1 (stereo unspecified) gave PfKRS1: -0.1345%; Pks13 thioesterase: -0.3499%; MtTrpRS: 0.8639%; TcHisRS: 1.98%.

Result for CC(C)CN1C(=O)C2(CCN(Cc3nccs3)C2)c2ccccc21 (stereo unspecified) was PfKRS1: 10.13%; Pks13 thioesterase: -14.36%; MtTrpRS: 4.128%; TcHisRS: 4.813%. Cc1cc(NC(=O)NCC(c2ccc(C)o2)N2CCOCC2)n(C)n1 (stereo unspecified) read PfKRS1: -1.437%; Pks13 thioesterase: -6.693%; MtTrpRS: 14.3%; TcHisRS: -1.744%. O=C(NCc1cccc(F)c1)N1CCC2(CC(=O)N(c3ccsc3)C2)C1 (stereo unspecified) read PfKRS1: 9.526%; Pks13 thioesterase: -18.71%; MtTrpRS: -2.627%; TcHisRS: 6.952%. CC(=O)N1CCC2(CC1)CC(NC(=O)N(C)C)c1cc(C)ccc12 (stereo unspecified) gave PfKRS1: -6.062%; Pks13 thioesterase: -50.69%; MtTrpRS: 2.571%; TcHisRS: 2.857%.

Result for CNC(=O)CN(C(=O)c1ccc(SC)o1)c1cccc(F)c1 was PfKRS1: 1.644%; Pks13 thioesterase: -18.61%; MtTrpRS: -3.233%; TcHisRS: 6.186%. Nc1nccc(C2CCN(CC3CC3)C2)n1 (stereo unspecified) read PfKRS1: 1.602%; Pks13 thioesterase: -19.5%; MtTrpRS: 0.07807%; TcHisRS: -10.15%. CC(C)Cn1cc(NCc2cscn2)cn1 gave PfKRS1: 12.19%; Pks13 thioesterase: -7.835%; MtTrpRS: -1.709%; TcHisRS: 10%. For O=C(c1cccc(F)c1)N1CC[C@@H]2CN(c3ncccn3)CCO[C@@H]2C1 the result was PfKRS1: -3.851%; Pks13 thioesterase: -8.898%; MtTrpRS: -2.033%; TcHisRS: 2.941%.

CN1C(=O)C2(CCN(C(=O)c3ccccc3)CC2)c2cc(F)ccc21 gave PfKRS1: 0.8258%; Pks13 thioesterase: -0.6015%; MtTrpRS: -4.661%; TcHisRS: 8.247%. Result for Cc1cc(NC(=O)NCC2COc3ccccc3C2)no1 (stereo unspecified) was PfKRS1: -3.655%; Pks13 thioesterase: -32.77%; MtTrpRS: 27.83%; TcHisRS: -2.26%. CCCS(=O)(=O)N1CCC(NC(=O)c2ccc(Cl)s2)CC1 gave PfKRS1: 3.737%; Pks13 thioesterase: -7.112%; MtTrpRS: -0.1776%; TcHisRS: 2.905%. Result for O=C(Cc1ccsc1)NCCc1ccoc1 was PfKRS1: 1.077%; Pks13 thioesterase: -33.34%; MtTrpRS: 1.029%; TcHisRS: 4.444%.

CC(C)(C)S(=O)(=O)CCNC(=O)c1ccc2ccccc2c1 read PfKRS1: 4.828%; Pks13 thioesterase: -10.91%; MtTrpRS: -2.825%; TcHisRS: 5.752%. For Cc1ccc(NCc2ccco2)cc1N1CCOC1=O the result was PfKRS1: 5.636%; Pks13 thioesterase: -8.736%; MtTrpRS: -7.385%; TcHisRS: 4.202%. For NC(=O)C1CCCN(Cc2c(-c3ccco3)[nH]c3ncccc23)C1 (stereo unspecified) the result was PfKRS1: 8.474%; Pks13 thioesterase: 12.36%; MtTrpRS: 5.936%; TcHisRS: 5.946%. Result for Cc1ncc2c(n1)CN(CC(=O)Nc1cc(C)on1)CC2 was PfKRS1: 1.722%; Pks13 thioesterase: -6.845%; MtTrpRS: 0.5136%; TcHisRS: 6.936%.

With c1ccc(-c2nc(CN3CCOC(Cn4cccn4)C3)co2)cc1 (stereo unspecified) the screen gave PfKRS1: -0.5786%; Pks13 thioesterase: -3.136%; MtTrpRS: -4.496%; TcHisRS: 6.017%. Result for CN(C)c1nc(N)nc(CN2CCCC2c2cccs2)n1 (stereo unspecified) was PfKRS1: 1.297%; Pks13 thioesterase: 29.47%; MtTrpRS: -0.8811%; TcHisRS: 7%.

Some entries from above, unchanged:

compound,PfKRS1,Pks13 thioesterase,MtTrpRS,TcHisRS
Cc1ncc2c(n1)CN(CC(=O)Nc1cc(C)on1)CC2,1.722,-6.845,0.5136,6.936
CCNc1ccnc(NCC2CNCCO2)n1 (stereo unspecified),2.295,-11.43,-0.867,8.021